The target of experiment [1] is endogenous UTX protein (human (endogenous in Jurkat)) (UniProt O15550). Put plainly: co-IP; Jurkat nuclear protein lysate (Nuclear Complex Co-IP Kit), 500 ug total protein, 7 ug UTX antibody overnight at 4 C, Protein A 1 h, 6 washes, Western blot; rabbit IgG as negative control. (In general: In western blotting, separated proteins are transferred to a membrane and probed.)

By UniProt entry, the sequences of proteins in these tests, tags left out.
UniProt O15550: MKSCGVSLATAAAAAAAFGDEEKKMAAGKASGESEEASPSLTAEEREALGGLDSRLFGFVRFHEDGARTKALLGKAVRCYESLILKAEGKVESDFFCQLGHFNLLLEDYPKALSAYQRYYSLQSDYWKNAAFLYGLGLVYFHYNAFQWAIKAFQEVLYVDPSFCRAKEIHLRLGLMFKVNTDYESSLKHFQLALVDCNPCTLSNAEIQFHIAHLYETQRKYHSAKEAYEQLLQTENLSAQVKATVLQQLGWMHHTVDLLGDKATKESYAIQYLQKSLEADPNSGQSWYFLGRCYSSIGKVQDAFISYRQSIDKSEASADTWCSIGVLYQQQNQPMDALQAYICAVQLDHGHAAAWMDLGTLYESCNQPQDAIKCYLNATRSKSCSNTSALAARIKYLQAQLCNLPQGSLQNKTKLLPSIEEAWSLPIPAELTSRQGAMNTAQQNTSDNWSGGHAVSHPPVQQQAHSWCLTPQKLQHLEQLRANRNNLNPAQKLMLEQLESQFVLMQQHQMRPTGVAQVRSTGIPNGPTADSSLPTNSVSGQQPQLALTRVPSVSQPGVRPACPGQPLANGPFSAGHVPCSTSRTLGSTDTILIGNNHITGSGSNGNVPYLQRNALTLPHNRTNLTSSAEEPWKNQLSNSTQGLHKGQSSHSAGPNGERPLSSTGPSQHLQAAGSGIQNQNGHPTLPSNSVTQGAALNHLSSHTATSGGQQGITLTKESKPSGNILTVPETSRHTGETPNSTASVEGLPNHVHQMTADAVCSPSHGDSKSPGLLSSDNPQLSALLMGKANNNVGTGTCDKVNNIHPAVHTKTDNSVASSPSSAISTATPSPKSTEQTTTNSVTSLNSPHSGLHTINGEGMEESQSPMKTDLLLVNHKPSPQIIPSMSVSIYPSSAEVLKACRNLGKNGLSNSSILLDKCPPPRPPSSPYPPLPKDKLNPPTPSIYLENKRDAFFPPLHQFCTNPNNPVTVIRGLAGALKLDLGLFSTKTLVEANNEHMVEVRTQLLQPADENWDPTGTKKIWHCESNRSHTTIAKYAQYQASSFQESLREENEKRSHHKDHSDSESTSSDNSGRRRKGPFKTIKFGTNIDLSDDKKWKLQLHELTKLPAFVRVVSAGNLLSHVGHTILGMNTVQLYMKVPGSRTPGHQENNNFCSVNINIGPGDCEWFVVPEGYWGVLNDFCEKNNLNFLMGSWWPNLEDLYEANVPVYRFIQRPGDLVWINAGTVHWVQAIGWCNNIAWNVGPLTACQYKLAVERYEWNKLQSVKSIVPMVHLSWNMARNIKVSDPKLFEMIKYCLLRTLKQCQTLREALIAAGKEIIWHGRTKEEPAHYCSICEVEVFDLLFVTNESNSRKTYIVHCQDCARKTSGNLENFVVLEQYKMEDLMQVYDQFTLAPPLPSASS
UniProt P36402: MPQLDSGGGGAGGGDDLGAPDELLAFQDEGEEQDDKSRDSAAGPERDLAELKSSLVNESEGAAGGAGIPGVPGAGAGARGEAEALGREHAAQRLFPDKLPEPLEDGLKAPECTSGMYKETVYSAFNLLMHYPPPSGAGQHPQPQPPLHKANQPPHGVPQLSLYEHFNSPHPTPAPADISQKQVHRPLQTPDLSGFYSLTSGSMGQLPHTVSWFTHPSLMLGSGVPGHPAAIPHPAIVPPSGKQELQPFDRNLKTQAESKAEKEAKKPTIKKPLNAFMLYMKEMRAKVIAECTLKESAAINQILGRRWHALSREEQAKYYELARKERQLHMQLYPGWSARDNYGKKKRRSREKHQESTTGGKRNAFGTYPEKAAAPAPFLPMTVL
UniProt P40763: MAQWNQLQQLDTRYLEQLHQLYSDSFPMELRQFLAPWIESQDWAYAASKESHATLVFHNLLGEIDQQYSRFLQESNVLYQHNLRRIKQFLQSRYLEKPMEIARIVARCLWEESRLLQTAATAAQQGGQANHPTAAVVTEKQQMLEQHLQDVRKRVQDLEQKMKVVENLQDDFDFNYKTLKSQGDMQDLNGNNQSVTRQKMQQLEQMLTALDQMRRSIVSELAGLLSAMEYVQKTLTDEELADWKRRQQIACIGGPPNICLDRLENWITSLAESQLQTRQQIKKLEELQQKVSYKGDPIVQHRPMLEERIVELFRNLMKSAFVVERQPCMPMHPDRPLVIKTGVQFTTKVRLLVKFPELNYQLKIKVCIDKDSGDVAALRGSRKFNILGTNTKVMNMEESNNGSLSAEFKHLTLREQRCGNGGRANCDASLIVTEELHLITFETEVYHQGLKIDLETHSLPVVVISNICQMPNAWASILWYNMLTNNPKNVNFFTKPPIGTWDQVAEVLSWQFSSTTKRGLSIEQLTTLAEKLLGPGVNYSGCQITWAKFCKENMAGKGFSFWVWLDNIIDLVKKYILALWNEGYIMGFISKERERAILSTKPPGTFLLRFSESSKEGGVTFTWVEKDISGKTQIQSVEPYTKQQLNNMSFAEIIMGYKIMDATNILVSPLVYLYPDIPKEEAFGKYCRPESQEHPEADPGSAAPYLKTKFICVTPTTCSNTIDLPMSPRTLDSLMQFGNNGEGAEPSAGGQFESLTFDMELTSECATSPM

For experiment [2], the target named is Flag-tag UTX (ubiquitously transcribed tetratricopeptide repeat, X chromosome; encoded by KDM6A) (UniProt O15550). Description: co-IP; HEK-293T cells cotransfected with the two tagged constructs, harvested 24 h later, Nuclear Complex Co-IP Kit, 500 ug total protein, anti-FLAG M2 magnetic beads overnight, 6 washes, Western blot (HA and FLAG antibodies); empty Flag construct as control for STAT3.

No constants are given. Whether binding was seen depends on the method and setting. In cells and extracts the contact can be indirect. Some entries that bind do so weakly or less than the wild type.

For “TCF1 (endogenous, Jurkat) (from UniProt P36402 1-384)”, the binding entry in experiment [1] was “binds”.
For the substance HA-Tag TCF1 (from UniProt P36402 1-384), the binding result in experiment [2] is on record as “binds”.
On to “STAT3 (endogenous, Jurkat) (from UniProt P40763 1-770)”, for which the binding result in experiment [1] is on record as “binds”.

For the origin of these results see paper PMC12904725.
